PubChem BioAssay AID686943 – Drosophila RNAi Screening Center | 2013
Test: 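Knockdowns that increase or decrease active ERK after insulin receptor stimulation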 (primary screen). System: Drosophila S2R+ haemocyte-like cells expressing YFP-tagged ERK (Rolled). Knock-down reagent: long dsRNA against Drosophila genes. Treatment: insulin stimulation versus unstimulated cells; dose and duration not given. Measurement: 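Antibody staining for doubly phosphorylated ERK divided by ERK-YFP signal, as plate z-scores, in insulin-treated and untreated cells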. Direction: replicate 1, z-score of dpERK with insulin and replicate 2, z-score of dpERK with insulin: higher = more active ERK per ERK-YFP after insulin; replicate 1, z-score of dpERK under basal conditions: higher = more basal active ERK per ERK-YFP; replicate 1, z-score of ERK-YFP with insulin: higher = more YFP-tagged ERK signal.
The screen tested about 23,000 reagents; below is a random part of those that have a named target and a result. 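Extra replicates exist only for a retested subset of genes; insulin dose and duration not given; both raised and lowered dpERK matter.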 Names joined by + are all predicted targets of the reagent. Not stated in the record: the amount of reagent, the time to read-out.

Target gene,DRSC id,"replicate 1, z-score of dpERK with insulin","replicate 2, z-score of dpERK with insulin","replicate 1, z-score of dpERK under basal conditions","replicate 1, z-score of ERK-YFP with insulin"
CG4615 (GeneID 31656),DRSC17491,-0.11,0.89,-0.27,0.2
CG4615 (GeneID 31656),DRSC18376,-0.44,-1.39,-1.18,-2.9
CoRest (GeneID 32941),DRSC19881,-3.05,-3.21,3.57,-1.86
CoRest (GeneID 32941),DRSC21626,0.2,0.52,1.07,0.23
CoRest (GeneID 32941),DRSC22305,-0.77,-1.55,2.09,0.47
Unr (GeneID 38963),DRSC10761,0.07,0.03,0.95,-0.44
Unr (GeneID 38963),DRSC22959,-0.22,0.56,-0.65,0.6
CycY (GeneID 34593),DRSC02420,1.1,1.76,-0.23,1.01
CG43146 (retired record) (GeneID 12798239),DRSC09254,1.61,0.29,0.32,-0.74
RpL10 (GeneID 43864),DRSC11947,-3.41,-1.74,-2.38,-1.43
spdo (GeneID 318559),DRSC13988,0.66,0.2,0.15,-0.85
Cks85A (GeneID 41034),DRSC16562,-0.3,0.68,0.35,-0.18
Rrp47 (GeneID 32558),DRSC20124,-0.54,1.24,1.44,0.9
PIG-U (GeneID 34185),DRSC02193,-0.55,0.51,-0.34,1.35
mbf1 (GeneID 39842),DRSC11365,0.74,1.84,-1.54,0.46
Dnai2 (GeneID 39318),DRSC10575,0.64,0.01,0.65,0.15
CG8441 (GeneID 36792),DRSC07180,-0.07,0.29,1.31,0.38
UQCR-14L (GeneID 43369),DRSC15288,0.71,-0.09,-1.27,-0.56
UQCR-14L (GeneID 43369),DRSC22425,0.66,0.63,-0.1,0.84
CG5404 (GeneID 41901),DRSC15793,1.18,0.21,-0.57,0.62
CG6357 (GeneID 36532),DRSC06979,0.15,0.42,0.01,-0.13
Trmt61 (GeneID 43170),DRSC14888,-0.93,0.05,-0.17,0.37
unc-119 (GeneID 31664),DRSC18846,-0.42,-0.55,0.22,0.68
CG7728 (GeneID 39904),DRSC10907,-0.01,-0.32,-0.31,-2.07
E(spl)m6-BFM (GeneID 43159),DRSC16993,0.38,0.01,1.03,0.6
lgs (GeneID 43791),DRSC17152,-0.43,-0.47,-0.73,1.83
Obp58d (GeneID 37609),DRSC04162,-0.61,-0.3,0.12,0.4
CG4744 (GeneID 36485),DRSC06887,0.49,-0.05,0.23,0.41
Ada2a + Polr2D,DRSC16206,0.24,0,-1.07,1.11
Ada2a + Polr2D,DRSC21598,3.44,2.25,-0.35,-1.47
Kdm2 (GeneID 41090),DRSC14286,-0.72,-0.15,0.05,-0.74
CG11227 (GeneID 33071),DRSC20476,0.05,0.03,0.89,-0.11
polyph (GeneID 36161),DRSC06254,-0.12,-0.27,-0.03,0.33
CG42807 (GeneID 36511),DRSC06966,-0.03,0.03,-0.26,0.14
CG10431 (GeneID 35157),DRSC02055,0.74,0.58,0.98,0.33
CG15800 (GeneID 37763),DRSC04271,0.47,0.23,0.62,0.22
VhaAC45 (GeneID 35944),DRSC07058,1.03,1.05,0.08,-0.8
CG15390 (GeneID 33422),DRSC00404,0.42,-0.43,-0.13,-0.2
CG17931 + CG42446,DRSC15293,-0.08,0.18,-0.28,0.35
